Reference: PubChem BioAssay AID1159584 (Peter MacCallum Cancer Centre, 2016)
This is an unselected part of about 18,000 deposited reagents. Further read-outs or replicates are left out here. Not stated in the record: the amount of reagent, the time to read-out.

Purpose: 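Genes whose loss is lethal only together with E-cadherin loss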 (primary screen)
System: human MCF10A breast epithelial cells, parental and CDH1-null
Knock-down reagent: siRNA against human genes
Measured: 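ATP luminescence (CellTiter-Glo) viability per line relative to mean mock wells over all plates, and the ratio of CDH1-null to parental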
Scale: CDH1-null / parental viability ratio: higher = CDH1-null cells survive relatively better than parental; CDH1-null viability vs mock: higher = more viable CDH1-null cells
Units: CDH1-null viability vs mock in fraction of mock

What did the screen give for PLPPR1?
CDH1-null / parental viability ratio: 1.22; CDH1-null viability vs mock: 0.44

With LYLDT1, what was measured?
CDH1-null / parental viability ratio: 0.87; CDH1-null viability vs mock: 0.72

For ARMCX2, what was measured?
CDH1-null / parental viability ratio: 0.99; CDH1-null viability vs mock: 0.83

With THSD4, what was measured?
CDH1-null / parental viability ratio: 1; CDH1-null viability vs mock: 0.7

With ACO1, how do the results read?
CDH1-null / parental viability ratio: 0.89; CDH1-null viability vs mock: 0.62

How did the screen score NRG2?
CDH1-null / parental viability ratio: 1.16; CDH1-null viability vs mock: 1

How did the screen score YY2?
CDH1-null / parental viability ratio: 0.97; CDH1-null viability vs mock: 0.93

For CDH11, what does the deposit list?
CDH1-null / parental viability ratio: 1.13; CDH1-null viability vs mock: 1.04

What did the screen give for BBS5?
CDH1-null / parental viability ratio: 0.87; CDH1-null viability vs mock: 0.61

For RNASE9, what does the deposit list?
CDH1-null / parental viability ratio: 1; CDH1-null viability vs mock: 1

What did the screen give for IGSF21?
CDH1-null / parental viability ratio: 1.22; CDH1-null viability vs mock: 0.9

Which result is listed for ST6GAL2?
CDH1-null / parental viability ratio: 0.96; CDH1-null viability vs mock: 0.68

What is on record for ZNF239?
CDH1-null / parental viability ratio: 1.21; CDH1-null viability vs mock: 1.11

Which result is listed for KRTAP26-1?
CDH1-null / parental viability ratio: 0.91; CDH1-null viability vs mock: 0.93

With RCOR3, what was measured?
CDH1-null / parental viability ratio: 0.8; CDH1-null viability vs mock: 0.48

What did the screen give for HAUS3?
CDH1-null / parental viability ratio: 1.23; CDH1-null viability vs mock: 0.9

What did the screen give for HSP90AA1?
CDH1-null / parental viability ratio: 1; CDH1-null viability vs mock: 1.02

Which result is listed for FMR1NB?
CDH1-null / parental viability ratio: 0.86; CDH1-null viability vs mock: 0.37

With AUNIP, what does the deposit list?
CDH1-null / parental viability ratio: 0.89; CDH1-null viability vs mock: 0.62

What is on record for VPS37A?
CDH1-null / parental viability ratio: 0.84; CDH1-null viability vs mock: 0.82

What is on record for HAGHL?
CDH1-null / parental viability ratio: 1.12; CDH1-null viability vs mock: 0.94

With GTPBP4, what was measured?
CDH1-null / parental viability ratio: 1.03; CDH1-null viability vs mock: 0.64

Look-ups from above:
Value of ACO1 in “CDH1-null viability vs mock”: 0.62
Entry for AUNIP under “CDH1-null viability vs mock”: 0.62

The list goes on:
With PSMA8, what was measured?
CDH1-null / parental viability ratio: 1.27; CDH1-null viability vs mock: 0.76

For LINC02908, what was measured?
CDH1-null / parental viability ratio: 1.39; CDH1-null viability vs mock: 0.71

With SERTAD2, how do the results read?
CDH1-null / parental viability ratio: 1.27; CDH1-null viability vs mock: 0.38

With NAP1L4, how do the results read?
CDH1-null / parental viability ratio: 0.9; CDH1-null viability vs mock: 0.38

With TRIP13, what was measured?
CDH1-null / parental viability ratio: 0.88; CDH1-null viability vs mock: 0.9

For AXIN2, what does the deposit list?
CDH1-null / parental viability ratio: 1.08; CDH1-null viability vs mock: 0.82

Which result is listed for ROM1?
CDH1-null / parental viability ratio: 1.58; CDH1-null viability vs mock: 0.82

For MED10, what does the deposit list?
CDH1-null / parental viability ratio: 1.49; CDH1-null viability vs mock: 0.7

What is on record for ADGRA3?
CDH1-null / parental viability ratio: 0.84; CDH1-null viability vs mock: 0.82

For RND3, how do the results read?
CDH1-null / parental viability ratio: 1.03; CDH1-null viability vs mock: 0.78

With ZNF248, what does the deposit list?
CDH1-null / parental viability ratio: 1.31; CDH1-null viability vs mock: 0.92

What is on record for CSTB?
CDH1-null / parental viability ratio: 0.87; CDH1-null viability vs mock: 0.66

With TLX3, how do the results read?
CDH1-null / parental viability ratio: 1.27; CDH1-null viability vs mock: 0.57

With ENDOV, how do the results read?
CDH1-null / parental viability ratio: 1.03; CDH1-null viability vs mock: 1.02

With IGF1R, what was measured?
CDH1-null / parental viability ratio: 0.77; CDH1-null viability vs mock: 0.48

What did the screen give for CCDC15?
CDH1-null / parental viability ratio: 0.84; CDH1-null viability vs mock: 0.74

With PRR4, what was measured?
CDH1-null / parental viability ratio: 0.97; CDH1-null viability vs mock: 0.64

Which result is listed for WRNIP1?
CDH1-null / parental viability ratio: 1.08; CDH1-null viability vs mock: 1.1

With ESAM, how do the results read?
CDH1-null / parental viability ratio: 1.14; CDH1-null viability vs mock: 0.98

Which result is listed for TSPYL2?
CDH1-null / parental viability ratio: 1.2; CDH1-null viability vs mock: 1.06

With C10orf90, how do the results read?
CDH1-null / parental viability ratio: 1.21; CDH1-null viability vs mock: 0.82

For ANAPC15, how do the results read?
CDH1-null / parental viability ratio: 1.19; CDH1-null viability vs mock: 0.87

For MRPL15, what was measured?
CDH1-null / parental viability ratio: 1.11; CDH1-null viability vs mock: 0.63
